No constants are given. Whether binding was seen depends on the method and setting. Binding seen in cells or lysates may run through a third protein.
Biological target: FLAG-KIF5A WT (human kinesin family member 5A, full length wild type) (human) (UniProt Q12840)
Assay: co-IP

Amino acid sequences for entries named in this document (tags omitted).
UniProt Q12840: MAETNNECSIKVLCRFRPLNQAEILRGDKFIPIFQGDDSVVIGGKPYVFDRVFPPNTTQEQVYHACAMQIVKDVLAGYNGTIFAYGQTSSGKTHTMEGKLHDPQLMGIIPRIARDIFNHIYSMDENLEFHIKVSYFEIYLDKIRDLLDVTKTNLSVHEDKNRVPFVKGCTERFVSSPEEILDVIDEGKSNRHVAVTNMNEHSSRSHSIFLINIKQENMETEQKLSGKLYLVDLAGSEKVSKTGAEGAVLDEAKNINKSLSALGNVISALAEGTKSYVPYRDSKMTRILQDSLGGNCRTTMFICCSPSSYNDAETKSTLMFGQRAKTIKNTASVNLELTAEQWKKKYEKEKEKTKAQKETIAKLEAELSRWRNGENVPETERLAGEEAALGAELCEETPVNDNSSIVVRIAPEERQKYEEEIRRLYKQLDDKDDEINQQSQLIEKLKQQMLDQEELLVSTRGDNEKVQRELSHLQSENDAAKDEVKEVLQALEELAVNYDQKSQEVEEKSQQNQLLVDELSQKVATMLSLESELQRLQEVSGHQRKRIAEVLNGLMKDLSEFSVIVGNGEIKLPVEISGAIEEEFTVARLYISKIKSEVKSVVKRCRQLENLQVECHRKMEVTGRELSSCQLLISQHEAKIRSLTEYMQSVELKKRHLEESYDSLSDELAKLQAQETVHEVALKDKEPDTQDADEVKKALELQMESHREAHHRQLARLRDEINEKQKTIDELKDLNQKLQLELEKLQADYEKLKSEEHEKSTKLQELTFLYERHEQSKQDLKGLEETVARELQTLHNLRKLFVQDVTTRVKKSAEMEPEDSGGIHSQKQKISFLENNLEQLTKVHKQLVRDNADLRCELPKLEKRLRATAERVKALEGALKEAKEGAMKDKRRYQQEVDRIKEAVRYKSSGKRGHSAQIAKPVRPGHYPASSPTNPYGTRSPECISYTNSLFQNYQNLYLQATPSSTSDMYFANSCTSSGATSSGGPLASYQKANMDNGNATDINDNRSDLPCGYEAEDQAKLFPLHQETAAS

binding: no binding
Substance: p62 (from UniProt Q13501 1-440)
